Test results published in patent publication US8586598B2, “CDK inhibitor salts” (Nerviano Medical Sciences S.R.L., priority 2009, dated 2013).
For at least one compound, name, drawing or mass did not settle the structure.

Experiment: Hygroscopicity test by Dynamic Vapour Sorption (DVS)
Format: physicochemical
Conditions: 25° C., 90% RH

In the case of CNC(=O)c1nn(C)c2c1C(C)(C)Cc1cnc(Nc3ccc(N4CCN(C)CC4)cc3)nc1-2 [compound 125, 8-[4-(4-methyl-piperazin-1-yl)-phenylamino]-1,4,4-trimethyl-4,5-dihydro-1H-pyrazolo[4,3-h]quinazoline-3-carboxylic acid methylamide], the “water uptake at 90% relative humidity” value is reported as “about 2%”.
